# Results taken from patent US9133179B2, “2-methoxy-pyridin-4-yl-derivatives” (Actelion Pharmaceuticals Ltd., priority 2011, dated 2015).
# Some of these results come from one statement about several compounds together.
# Test system: rat trachea rings
# Assay: Measurement of isometric force development: constriction of rat trachea rings
SMILES,concentration at which significant (or full) rat trachea constriction is shown,concentration at which significant (or KCl-comparable) rat trachea constriction is shown
CCc1cc(-c2noc(-c3cc(OC)nc(C4CCCC4)c3)n2)cc(C)c1OC[C@@H](O)CNCCO [Example 3],> 30 µM,–
CCc1cc(-c2noc(-c3cc(OC)nc(C4CCCC4)c3)n2)cc(C)c1OC[C@@H](O)CNC(CO)CO [Example 4],> 30 µM,–
"COc1cc(-c2nc(-c3cc(C)c(OCC(=O)O)c(Cl)c3)no2)cc(C2CCCC2)n1 [Example 41, 2-(2-Chloro-4-(5-(2-cyclopentyl-6-methoxypyridin-4-yl)-1,2,4-oxadiazol-3-yl)-6-methylphenoxy)acetic acid]",–,> 0.03 µM
